Some of the results follow.
compound: CC1=CC=C(C=C1)SC2=C3C=C(SC3=CN=C2)C(=O)N; experiment: log2 fold change, soluble protein after heating vs DMSO (PISA); higher = thermal stabilisation; K562 cells, 10 uM, 30 min; active = over 0.2 and 3.5 SD of the protein, either way, in both replicates (recomputed)
Method in brief: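 K562 cells at 2×10^6 cells/mL were treated for 30 min with 10 μM compound, and aliquots were heated for 3 min over 48°C-58°C before pooling. Extraction used PBS with 0.5% NP-40 at 4°C, and soluble protein was the supernatant after 21,000xg for 90 min, measured by TMTpro 16plex LC-MS/MS with channel sums equalised. Thermal stability values, relative to control samples and from duplicates, are log2 fold changes.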

By UniProt entry, the sequences of proteins in these tests, tags left out. Where a name states a change or a piece, a line headed by the entry shows the natural chain unless it says otherwise.
UniProt Q2M296: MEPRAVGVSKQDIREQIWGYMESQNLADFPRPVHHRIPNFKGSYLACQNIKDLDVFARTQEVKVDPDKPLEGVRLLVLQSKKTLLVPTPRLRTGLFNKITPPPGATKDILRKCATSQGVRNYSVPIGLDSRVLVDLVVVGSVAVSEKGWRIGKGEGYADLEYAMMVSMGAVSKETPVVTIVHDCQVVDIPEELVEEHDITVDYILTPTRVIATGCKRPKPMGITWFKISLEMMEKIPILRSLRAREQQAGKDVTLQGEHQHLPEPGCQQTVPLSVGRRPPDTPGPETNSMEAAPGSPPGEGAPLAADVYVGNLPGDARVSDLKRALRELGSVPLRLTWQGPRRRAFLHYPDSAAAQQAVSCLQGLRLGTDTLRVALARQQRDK
UniProt P00414, whole entry, looked up: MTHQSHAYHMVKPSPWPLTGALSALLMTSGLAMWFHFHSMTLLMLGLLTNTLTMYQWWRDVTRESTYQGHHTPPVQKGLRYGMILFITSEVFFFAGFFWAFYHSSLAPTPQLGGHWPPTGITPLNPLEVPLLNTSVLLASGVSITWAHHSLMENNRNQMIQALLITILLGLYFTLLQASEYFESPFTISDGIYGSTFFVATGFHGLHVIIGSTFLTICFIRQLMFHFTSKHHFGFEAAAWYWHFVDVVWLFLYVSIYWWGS
MTHFD1, A0A384N5Y3, UniProt A0A384N5Y3, whole entry, looked up: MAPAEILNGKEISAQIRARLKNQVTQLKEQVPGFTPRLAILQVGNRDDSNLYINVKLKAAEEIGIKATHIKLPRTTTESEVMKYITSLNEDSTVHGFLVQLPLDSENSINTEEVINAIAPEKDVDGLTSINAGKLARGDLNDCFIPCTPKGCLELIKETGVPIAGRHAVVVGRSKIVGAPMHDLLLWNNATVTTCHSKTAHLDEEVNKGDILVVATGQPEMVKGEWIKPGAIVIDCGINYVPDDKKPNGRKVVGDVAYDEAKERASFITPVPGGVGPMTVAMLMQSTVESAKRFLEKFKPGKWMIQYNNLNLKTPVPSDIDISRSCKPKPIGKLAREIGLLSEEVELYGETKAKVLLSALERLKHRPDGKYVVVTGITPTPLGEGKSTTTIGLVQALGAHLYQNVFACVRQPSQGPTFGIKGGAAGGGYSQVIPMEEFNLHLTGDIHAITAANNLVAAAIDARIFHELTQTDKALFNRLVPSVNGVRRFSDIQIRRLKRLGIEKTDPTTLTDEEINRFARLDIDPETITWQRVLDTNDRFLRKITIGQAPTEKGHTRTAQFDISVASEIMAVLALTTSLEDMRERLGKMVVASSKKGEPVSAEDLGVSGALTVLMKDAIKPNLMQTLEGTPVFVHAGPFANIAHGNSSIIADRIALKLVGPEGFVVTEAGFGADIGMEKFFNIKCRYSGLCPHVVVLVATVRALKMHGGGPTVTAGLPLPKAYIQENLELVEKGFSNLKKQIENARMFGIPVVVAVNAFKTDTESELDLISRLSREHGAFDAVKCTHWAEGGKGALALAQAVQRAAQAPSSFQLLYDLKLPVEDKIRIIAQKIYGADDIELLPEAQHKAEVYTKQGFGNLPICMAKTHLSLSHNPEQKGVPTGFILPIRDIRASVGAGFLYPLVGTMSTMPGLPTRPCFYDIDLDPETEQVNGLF
UniProt P11586, whole entry, looked up: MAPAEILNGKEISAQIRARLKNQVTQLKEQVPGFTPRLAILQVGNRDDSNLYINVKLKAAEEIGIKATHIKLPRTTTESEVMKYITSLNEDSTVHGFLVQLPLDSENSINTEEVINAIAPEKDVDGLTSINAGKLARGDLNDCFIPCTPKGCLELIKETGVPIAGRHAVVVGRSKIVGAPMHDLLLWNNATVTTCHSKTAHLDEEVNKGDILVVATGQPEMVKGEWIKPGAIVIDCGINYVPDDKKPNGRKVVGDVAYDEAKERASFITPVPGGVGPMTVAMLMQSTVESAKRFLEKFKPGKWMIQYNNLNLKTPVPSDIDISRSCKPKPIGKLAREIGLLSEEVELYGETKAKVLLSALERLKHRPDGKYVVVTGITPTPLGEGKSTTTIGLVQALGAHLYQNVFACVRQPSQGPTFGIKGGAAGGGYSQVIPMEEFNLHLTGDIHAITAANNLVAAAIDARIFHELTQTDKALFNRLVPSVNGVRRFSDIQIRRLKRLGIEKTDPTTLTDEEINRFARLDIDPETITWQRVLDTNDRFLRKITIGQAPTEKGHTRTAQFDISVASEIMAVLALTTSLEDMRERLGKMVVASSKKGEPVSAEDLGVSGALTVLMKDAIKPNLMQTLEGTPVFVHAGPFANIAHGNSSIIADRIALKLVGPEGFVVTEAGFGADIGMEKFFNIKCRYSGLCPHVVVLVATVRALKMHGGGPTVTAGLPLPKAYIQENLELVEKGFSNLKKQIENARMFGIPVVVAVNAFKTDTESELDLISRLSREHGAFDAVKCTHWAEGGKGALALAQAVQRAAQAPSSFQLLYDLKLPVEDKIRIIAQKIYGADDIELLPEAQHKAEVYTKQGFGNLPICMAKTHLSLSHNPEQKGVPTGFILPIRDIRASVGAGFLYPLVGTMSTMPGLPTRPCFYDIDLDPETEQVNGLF
UniProt Q15746, whole entry, looked up: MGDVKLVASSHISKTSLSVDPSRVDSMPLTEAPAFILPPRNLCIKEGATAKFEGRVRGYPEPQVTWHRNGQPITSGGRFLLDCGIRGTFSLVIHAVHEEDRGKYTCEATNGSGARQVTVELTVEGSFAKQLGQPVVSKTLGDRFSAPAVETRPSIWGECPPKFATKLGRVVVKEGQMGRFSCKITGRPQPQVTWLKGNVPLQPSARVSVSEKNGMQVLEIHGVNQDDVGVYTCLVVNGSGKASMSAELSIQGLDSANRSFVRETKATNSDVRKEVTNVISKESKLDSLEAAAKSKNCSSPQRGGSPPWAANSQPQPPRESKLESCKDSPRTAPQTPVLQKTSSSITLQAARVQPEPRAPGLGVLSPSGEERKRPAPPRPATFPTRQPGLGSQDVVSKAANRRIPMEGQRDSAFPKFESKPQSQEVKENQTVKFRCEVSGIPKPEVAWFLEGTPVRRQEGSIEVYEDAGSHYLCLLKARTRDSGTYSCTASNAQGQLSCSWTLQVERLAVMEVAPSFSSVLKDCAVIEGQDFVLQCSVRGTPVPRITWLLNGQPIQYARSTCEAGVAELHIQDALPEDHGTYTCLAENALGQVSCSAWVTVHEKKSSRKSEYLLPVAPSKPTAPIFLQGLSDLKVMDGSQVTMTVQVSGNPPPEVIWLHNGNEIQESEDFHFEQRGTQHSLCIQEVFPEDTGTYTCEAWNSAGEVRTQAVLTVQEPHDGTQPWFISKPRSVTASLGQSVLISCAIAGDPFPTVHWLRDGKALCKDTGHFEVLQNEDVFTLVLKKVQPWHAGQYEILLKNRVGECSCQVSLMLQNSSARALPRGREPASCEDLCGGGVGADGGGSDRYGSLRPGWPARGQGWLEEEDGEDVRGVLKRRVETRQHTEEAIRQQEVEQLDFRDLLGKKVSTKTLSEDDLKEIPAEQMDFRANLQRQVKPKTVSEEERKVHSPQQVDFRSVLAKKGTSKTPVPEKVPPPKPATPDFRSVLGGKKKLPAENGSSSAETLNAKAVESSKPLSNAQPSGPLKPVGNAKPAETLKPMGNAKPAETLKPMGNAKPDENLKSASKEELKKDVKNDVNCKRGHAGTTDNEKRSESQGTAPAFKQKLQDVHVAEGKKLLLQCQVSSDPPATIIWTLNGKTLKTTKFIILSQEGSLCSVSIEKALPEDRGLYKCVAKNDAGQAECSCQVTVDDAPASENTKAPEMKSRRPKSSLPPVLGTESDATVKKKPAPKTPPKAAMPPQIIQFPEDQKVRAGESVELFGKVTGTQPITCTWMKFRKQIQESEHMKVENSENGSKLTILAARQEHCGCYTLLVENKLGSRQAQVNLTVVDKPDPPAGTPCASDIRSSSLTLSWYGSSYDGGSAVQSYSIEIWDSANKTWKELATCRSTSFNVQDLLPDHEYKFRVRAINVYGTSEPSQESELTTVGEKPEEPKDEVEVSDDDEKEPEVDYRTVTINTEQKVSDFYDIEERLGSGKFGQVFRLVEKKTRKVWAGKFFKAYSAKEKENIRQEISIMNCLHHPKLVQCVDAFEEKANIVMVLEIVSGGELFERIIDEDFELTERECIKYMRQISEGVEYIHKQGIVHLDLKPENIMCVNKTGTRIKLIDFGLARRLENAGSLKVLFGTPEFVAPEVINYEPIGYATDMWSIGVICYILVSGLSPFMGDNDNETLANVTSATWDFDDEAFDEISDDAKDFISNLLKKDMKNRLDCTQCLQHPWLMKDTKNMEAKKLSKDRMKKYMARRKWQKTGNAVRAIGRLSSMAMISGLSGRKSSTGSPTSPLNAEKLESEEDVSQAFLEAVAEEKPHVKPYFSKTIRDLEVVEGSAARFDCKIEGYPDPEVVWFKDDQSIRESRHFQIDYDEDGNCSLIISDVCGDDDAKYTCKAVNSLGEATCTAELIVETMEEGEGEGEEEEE
UniProt Q8NCE2: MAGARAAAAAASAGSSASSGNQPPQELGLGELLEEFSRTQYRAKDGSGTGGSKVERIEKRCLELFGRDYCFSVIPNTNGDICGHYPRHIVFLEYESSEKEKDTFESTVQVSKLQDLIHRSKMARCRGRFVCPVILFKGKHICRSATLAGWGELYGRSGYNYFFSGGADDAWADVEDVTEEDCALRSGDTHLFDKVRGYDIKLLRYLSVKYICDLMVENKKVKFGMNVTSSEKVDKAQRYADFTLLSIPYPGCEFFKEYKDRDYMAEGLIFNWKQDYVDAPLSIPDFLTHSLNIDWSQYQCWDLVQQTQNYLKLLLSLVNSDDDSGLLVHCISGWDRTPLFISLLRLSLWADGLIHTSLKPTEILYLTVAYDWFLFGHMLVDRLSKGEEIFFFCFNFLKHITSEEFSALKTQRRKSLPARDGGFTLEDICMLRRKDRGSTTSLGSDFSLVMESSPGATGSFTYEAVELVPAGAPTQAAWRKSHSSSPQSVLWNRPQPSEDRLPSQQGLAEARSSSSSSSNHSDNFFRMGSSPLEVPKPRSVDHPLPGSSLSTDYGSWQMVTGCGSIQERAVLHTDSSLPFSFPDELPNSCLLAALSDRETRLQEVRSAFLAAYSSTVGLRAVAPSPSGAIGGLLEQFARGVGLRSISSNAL
UniProt Q99836, whole entry, looked up: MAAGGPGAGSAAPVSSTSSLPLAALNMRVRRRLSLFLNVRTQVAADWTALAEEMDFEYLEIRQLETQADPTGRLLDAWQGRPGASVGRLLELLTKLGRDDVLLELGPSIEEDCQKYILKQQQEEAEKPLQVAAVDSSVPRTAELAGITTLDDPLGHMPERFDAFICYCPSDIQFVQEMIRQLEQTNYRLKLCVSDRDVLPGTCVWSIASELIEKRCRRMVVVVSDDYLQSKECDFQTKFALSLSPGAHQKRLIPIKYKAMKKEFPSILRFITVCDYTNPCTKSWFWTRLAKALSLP
UniProt P13640: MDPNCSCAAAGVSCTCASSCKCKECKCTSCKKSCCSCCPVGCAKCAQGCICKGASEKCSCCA
UniProt Q9H019: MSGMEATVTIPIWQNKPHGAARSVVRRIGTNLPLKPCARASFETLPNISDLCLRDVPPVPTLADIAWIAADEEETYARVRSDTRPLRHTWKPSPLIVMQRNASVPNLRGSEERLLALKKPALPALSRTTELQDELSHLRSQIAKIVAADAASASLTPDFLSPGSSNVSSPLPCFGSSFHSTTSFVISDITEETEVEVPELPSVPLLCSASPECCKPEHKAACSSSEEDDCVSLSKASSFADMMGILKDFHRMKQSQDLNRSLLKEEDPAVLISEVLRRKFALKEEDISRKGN
UniProt Q96DP5: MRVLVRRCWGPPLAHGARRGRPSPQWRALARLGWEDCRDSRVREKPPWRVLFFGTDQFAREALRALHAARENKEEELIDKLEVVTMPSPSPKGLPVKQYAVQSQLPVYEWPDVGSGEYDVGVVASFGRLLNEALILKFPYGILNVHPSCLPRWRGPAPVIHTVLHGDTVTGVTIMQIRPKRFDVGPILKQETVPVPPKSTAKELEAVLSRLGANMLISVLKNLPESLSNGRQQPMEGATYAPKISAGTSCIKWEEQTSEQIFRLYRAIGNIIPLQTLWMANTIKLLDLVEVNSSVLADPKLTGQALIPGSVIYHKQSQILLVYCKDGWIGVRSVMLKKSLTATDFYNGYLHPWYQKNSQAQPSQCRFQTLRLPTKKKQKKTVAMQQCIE
UniProt Q7Z6M4: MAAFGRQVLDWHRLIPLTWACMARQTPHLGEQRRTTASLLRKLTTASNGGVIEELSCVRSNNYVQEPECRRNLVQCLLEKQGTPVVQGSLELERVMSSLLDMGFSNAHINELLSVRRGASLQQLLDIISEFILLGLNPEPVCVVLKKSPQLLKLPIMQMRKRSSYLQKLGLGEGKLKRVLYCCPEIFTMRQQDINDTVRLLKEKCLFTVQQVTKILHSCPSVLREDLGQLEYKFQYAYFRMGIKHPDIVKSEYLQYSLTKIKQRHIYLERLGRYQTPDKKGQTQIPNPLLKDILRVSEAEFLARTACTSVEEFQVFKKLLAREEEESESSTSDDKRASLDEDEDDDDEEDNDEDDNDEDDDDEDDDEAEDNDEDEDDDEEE

Target	log2 fold change
MT-ND1 (UniProt P03886)	inactive: -0.008
MTHFSD isoform 3 (UniProt Q2M296)	inactive: -0.048
MRPS15 (UniProt P82914)	inactive: -0.017
MTCH2 (UniProt E9PIE4)	inactive: -0.014
MYH16 (UniProt Q9H6N6)	inactive: 0.143
MT-CO3 (UniProt P00414)	inactive: 0.021
MRPS14 (UniProt O60783)	inactive: -0.028
MTHFD1, A0A384N5Y3	inactive: -0.055
MTHFD1 (UniProt P11586)	inactive: 0.003
MYLK (UniProt Q15746)	inactive: -0.013
MRPS18C (UniProt Q9Y3D5)	inactive: -0.138
MTA3 (UniProt Q9BTC8)	inactive: 0.005
MTMR10 (UniProt Q9NXD2)	inactive: -0.017
MTMR14 (UniProt Q8NCE2)	inactive: -0.004
MT-CO1 (UniProt P00395)	inactive: 0.015
MYD88 isoform 6 (UniProt Q99836)	inactive: -0.049
MT1G (UniProt P13640)	inactive: -0.045
MTFR1L (UniProt Q9H019)	inactive: 0.008
MRPS16 (UniProt Q9Y3D3)	inactive: 0.006
MTFMT (UniProt Q96DP5)	inactive: 0.057
MRPS21 (UniProt P82921)	inactive: 0.215
MTMR1 (UniProt Q13613)	inactive: -0.066
MRPS26 (UniProt Q9BYN8)	inactive: 0.002
MTERF4 (UniProt Q7Z6M4)	inactive: -0.047
MTO1 isoform 6 (UniProt Q9Y2Z2)	inactive: 0.033

Single values from the entries so far:
MT1G (UniProt P13640) – log2 fold change: inactive: -0.045
MYD88 isoform 6 (UniProt Q99836) – log2 fold change: inactive: -0.049
